± gives the standard deviation of the averaged measurements. The entries are a selection whose mix differs from that of the whole data set. Most entries show no effect beyond the scatter of the controls.

Protein sequences, listed by entry. Tags and fused reporters are not part of them. Lines headed by an entry give the natural chain unless they say otherwise; changes in a name come on top.
UniProt P14927: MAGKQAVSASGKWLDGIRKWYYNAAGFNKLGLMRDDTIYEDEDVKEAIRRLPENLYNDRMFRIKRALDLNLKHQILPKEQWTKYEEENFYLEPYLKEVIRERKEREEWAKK
UniProt P09874, whole entry: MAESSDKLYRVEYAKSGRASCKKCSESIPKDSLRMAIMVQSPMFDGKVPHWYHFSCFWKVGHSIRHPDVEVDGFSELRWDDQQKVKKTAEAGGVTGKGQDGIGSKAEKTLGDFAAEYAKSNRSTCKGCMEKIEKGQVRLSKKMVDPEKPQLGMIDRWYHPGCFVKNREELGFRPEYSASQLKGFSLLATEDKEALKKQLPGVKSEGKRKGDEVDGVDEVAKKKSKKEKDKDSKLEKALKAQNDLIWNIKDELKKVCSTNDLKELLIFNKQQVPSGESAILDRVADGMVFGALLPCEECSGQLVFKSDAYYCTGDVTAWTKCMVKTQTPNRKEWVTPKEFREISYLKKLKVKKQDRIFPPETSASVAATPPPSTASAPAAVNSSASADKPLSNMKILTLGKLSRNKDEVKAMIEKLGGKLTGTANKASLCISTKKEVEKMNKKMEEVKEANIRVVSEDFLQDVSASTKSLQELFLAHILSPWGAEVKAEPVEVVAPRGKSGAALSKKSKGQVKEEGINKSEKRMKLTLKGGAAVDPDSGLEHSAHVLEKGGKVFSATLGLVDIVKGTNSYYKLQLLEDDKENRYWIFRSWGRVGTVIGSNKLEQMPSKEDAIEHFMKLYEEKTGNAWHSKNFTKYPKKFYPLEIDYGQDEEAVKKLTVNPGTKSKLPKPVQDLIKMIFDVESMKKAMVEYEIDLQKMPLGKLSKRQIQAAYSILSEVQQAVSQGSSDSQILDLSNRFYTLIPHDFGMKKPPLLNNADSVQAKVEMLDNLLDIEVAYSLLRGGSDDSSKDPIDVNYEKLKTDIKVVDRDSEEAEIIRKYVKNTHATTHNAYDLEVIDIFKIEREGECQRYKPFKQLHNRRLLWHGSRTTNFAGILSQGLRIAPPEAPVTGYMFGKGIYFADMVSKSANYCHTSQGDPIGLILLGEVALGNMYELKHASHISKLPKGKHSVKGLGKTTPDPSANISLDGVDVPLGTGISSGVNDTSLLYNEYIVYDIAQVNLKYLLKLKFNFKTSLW
UniProt P00167, whole entry: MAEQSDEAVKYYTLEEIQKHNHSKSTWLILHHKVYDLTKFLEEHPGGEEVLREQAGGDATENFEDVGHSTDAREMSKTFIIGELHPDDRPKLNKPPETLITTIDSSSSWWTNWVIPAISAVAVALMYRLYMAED
UniProt P16930: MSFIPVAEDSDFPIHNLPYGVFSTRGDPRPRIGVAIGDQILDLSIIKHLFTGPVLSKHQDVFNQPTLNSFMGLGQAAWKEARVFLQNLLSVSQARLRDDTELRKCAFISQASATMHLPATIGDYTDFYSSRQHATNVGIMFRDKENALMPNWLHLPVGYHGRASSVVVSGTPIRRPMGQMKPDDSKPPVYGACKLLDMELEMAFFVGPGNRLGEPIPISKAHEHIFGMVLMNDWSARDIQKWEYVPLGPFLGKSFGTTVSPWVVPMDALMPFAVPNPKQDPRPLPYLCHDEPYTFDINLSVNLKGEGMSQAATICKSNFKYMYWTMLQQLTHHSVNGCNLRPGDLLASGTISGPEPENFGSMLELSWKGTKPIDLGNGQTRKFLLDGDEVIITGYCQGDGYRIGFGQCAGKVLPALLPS
UniProt P09661: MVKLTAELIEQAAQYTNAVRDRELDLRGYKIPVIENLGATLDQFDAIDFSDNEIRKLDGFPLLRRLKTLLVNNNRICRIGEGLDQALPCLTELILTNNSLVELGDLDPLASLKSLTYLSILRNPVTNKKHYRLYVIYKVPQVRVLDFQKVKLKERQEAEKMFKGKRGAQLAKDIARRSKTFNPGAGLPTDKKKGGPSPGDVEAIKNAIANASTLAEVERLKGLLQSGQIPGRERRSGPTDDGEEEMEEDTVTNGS
UniProt O96013: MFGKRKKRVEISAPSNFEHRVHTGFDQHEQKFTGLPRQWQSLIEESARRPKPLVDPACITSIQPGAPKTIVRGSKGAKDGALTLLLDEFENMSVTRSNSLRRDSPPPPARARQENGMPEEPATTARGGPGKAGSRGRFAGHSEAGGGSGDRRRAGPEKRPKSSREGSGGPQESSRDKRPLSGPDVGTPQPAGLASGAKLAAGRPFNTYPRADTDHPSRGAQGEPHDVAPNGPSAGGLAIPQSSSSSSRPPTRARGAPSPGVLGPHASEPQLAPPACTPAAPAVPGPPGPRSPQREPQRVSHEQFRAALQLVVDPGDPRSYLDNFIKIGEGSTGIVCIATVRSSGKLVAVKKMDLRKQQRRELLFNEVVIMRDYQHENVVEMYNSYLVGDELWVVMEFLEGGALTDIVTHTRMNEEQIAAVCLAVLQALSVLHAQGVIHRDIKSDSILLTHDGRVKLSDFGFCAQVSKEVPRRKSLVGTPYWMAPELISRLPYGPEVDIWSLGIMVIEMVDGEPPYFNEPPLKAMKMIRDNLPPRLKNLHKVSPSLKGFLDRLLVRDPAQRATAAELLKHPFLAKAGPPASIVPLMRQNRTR
UniProt P09622, whole entry: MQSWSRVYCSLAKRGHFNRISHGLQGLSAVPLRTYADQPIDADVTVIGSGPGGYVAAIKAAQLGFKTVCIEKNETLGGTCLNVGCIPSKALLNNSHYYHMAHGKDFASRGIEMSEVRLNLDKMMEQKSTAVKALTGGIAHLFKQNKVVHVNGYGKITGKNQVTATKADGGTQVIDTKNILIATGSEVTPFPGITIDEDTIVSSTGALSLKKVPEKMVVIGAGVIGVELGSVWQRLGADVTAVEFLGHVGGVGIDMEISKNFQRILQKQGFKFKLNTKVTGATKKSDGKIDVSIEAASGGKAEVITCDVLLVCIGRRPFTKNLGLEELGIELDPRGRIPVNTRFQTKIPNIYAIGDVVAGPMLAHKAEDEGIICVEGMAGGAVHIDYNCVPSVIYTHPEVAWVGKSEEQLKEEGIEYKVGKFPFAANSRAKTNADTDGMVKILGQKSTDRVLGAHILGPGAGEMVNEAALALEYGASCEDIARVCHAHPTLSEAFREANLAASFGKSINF
UniProt P11234: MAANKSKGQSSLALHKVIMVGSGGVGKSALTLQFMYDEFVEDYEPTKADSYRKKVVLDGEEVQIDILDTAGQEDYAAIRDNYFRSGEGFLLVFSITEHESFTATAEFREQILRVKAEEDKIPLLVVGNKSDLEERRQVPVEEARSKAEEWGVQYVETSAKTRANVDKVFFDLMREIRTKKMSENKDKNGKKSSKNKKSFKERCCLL
UniProt O95881: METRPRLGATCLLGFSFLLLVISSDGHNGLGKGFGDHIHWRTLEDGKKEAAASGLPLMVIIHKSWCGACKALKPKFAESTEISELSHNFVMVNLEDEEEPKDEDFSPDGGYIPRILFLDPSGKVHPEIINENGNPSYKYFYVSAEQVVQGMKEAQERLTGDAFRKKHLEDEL
UniProt P15260: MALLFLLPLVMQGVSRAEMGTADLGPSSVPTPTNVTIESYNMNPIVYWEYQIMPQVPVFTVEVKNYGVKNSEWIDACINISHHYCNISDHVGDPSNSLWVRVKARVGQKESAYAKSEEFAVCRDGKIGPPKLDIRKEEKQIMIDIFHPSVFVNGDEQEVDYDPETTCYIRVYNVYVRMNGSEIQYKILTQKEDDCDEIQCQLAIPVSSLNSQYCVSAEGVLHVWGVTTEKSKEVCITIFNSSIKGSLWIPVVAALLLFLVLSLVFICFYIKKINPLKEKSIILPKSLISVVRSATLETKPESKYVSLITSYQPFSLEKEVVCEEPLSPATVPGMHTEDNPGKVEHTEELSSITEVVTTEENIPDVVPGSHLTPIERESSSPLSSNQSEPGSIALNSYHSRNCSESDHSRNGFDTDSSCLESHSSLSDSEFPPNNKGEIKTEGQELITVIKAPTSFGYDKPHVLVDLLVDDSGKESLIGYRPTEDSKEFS
UniProt P16278: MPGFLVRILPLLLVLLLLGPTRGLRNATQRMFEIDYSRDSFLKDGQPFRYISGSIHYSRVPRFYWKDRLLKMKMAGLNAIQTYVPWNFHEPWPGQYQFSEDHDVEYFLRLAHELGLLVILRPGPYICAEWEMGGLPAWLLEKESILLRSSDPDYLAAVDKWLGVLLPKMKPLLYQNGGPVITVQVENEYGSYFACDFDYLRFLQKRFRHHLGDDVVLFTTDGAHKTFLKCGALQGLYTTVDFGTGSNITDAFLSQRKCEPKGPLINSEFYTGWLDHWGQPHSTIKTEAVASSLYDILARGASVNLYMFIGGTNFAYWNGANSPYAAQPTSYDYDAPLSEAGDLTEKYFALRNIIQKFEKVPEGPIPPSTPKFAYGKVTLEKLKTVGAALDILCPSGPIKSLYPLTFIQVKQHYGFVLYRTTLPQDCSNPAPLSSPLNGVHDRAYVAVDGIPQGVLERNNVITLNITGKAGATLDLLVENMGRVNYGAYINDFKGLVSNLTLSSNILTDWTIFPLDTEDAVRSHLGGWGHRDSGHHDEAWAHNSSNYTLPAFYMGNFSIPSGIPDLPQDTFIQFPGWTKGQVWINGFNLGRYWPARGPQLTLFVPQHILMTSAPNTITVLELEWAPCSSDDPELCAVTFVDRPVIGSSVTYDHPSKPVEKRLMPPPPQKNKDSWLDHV
UniProt P11274: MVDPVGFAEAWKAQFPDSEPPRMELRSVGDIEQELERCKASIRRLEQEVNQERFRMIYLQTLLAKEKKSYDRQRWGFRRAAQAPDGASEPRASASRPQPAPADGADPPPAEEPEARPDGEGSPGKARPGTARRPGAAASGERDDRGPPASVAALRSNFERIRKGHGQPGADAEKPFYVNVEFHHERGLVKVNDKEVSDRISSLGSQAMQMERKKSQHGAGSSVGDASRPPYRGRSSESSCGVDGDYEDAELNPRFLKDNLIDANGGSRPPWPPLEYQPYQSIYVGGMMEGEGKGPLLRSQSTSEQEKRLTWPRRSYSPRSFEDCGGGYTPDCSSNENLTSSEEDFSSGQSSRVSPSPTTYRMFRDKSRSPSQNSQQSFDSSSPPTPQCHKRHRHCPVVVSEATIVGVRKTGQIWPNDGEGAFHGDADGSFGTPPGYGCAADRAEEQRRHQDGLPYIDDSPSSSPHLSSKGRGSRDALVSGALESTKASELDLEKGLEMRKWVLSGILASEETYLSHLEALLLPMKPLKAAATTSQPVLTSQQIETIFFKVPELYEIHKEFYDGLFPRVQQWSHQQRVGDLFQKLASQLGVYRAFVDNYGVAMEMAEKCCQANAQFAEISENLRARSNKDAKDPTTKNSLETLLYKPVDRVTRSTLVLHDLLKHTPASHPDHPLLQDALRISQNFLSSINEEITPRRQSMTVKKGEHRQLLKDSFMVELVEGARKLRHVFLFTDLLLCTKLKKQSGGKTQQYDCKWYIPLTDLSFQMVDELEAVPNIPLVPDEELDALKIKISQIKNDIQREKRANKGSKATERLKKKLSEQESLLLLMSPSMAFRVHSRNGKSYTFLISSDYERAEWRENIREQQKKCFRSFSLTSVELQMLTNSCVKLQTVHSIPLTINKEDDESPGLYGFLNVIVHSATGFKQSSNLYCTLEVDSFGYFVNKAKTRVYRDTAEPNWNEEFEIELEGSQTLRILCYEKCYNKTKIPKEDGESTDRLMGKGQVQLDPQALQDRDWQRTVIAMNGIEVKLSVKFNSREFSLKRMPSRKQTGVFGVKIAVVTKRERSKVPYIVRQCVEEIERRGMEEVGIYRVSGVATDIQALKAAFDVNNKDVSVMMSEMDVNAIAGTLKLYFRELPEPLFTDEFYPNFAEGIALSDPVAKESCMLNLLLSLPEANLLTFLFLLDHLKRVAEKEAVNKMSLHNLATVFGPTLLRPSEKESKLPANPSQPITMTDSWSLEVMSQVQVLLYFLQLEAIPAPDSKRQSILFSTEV
UniProt O96005: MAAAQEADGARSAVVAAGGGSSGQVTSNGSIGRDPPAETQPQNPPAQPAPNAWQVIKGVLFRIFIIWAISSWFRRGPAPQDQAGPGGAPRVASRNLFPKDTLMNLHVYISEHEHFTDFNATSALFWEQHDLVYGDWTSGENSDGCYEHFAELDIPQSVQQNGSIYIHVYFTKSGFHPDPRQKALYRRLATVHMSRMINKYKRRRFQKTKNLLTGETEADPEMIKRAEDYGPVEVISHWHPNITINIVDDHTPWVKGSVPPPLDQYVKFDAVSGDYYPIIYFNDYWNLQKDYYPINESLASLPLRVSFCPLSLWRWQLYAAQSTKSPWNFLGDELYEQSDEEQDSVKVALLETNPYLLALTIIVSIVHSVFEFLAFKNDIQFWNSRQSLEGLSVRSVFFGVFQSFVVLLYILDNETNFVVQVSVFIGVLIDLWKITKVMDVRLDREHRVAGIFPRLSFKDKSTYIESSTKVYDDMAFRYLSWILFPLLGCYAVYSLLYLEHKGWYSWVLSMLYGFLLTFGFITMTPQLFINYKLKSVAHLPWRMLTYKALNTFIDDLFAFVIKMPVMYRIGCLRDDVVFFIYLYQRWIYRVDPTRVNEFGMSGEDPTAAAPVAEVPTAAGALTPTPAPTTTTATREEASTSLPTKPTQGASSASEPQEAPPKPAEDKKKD

Compound in this assay: Nc1ncnc2c1ncn2[C@@H]1O[C@H](COP(=O)(O)OP(=O)(O)NP(=O)(O)O)[C@@H](O)[C@H]1O [adenylyl imidodiphosphate]
Briefly: NP40-soluble protein abundance relative to vehicle (solubility fold change) (ratio); higher = more soluble protein in presence of AMP-PNP. The gist of the method: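 Values are fold changes against the detergent-processed vehicle, based on vsn-normalised intensities. Jurkat crude lysate was treated at eight concentrations from 0.1 to 10 mM (10 min at room temperature, then 3 min at 37 °C), solubilised with 0.8% NP40 and benzonase, ultracentrifuged and analysed by TMT-labelled LC-MS/MS over three independent experiments.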

UniProt P00441 and related entries: the NP40-soluble protein abundance runs as follows: (concentration: 0.1mM) 0.826 ± 0.16; (concentration: 0.5mM) 1.08 ± 0.056.

As to UniProt P04844 and related entries, the NP40-soluble protein abundance (concentration: 0.1mM) stood at 0.993 ± 0.031 and the NP40-soluble protein abundance (concentration: 0.5mM) is 0.993 ± 0.096.

Take HMGN1 (UniProt P05114): the NP40-soluble protein abundance is 1.07 ± 0.071 (concentration: 0.1mM) and 1.28 ± 0.27 (concentration: 0.5mM).

As for RPLP2 (UniProt P05387), the NP40-soluble protein abundance by setting is: (concentration: 0.1mM) 0.967 ± 0.03; (concentration: 0.5mM) 0.984 ± 0.028.

With FDX1 (UniProt P10109), the NP40-soluble protein abundance (concentration: 0.1mM) amounted to 0.943 ± 0.014 and the NP40-soluble protein abundance (concentration: 0.5mM) is 0.954 ± 0.047.

In the case of UniProt P04075 and related entries, the NP40-soluble protein abundance (concentration: 0.1mM) is 1.01 ± 0.057 and the NP40-soluble protein abundance (concentration: 0.5mM) stood at 1.05 ± 0.081.

UQCRB (UniProt P14927): the NP40-soluble protein abundance by setting is: (concentration: 0.1mM) 0.98 ± 0.07; (concentration: 0.5mM) 1.02 ± 0.11.

In the case of H2AFX (UniProt P16104), the NP40-soluble protein abundance amounted to 0.985 ± 0.077 (concentration: 0.1mM) and 1.01 ± 0.14 (concentration: 0.5mM).

On to UniProt P05023 and related entries, for which the NP40-soluble protein abundance by setting is: (concentration: 0.1mM) 1.01 ± 0.056; (concentration: 0.5mM) 1.03 ± 0.054.

Take PARP1 (UniProt P09874): the NP40-soluble protein abundance was found to be 1.01 ± 0.012 (concentration: 0.1mM) and 1.03 ± 0.019 (concentration: 0.5mM).

UniProt O95983 and related entries: the NP40-soluble protein abundance (concentration: 0.1mM) is 1.01 ± 0.022 and the NP40-soluble protein abundance (concentration: 0.5mM) was 0.981 ± 0.048.

Consider PRPS2 (UniProt P11908), for which the NP40-soluble protein abundance is, setting by setting: (concentration: 0.1mM) 0.997 ± 0.027; (concentration: 0.5mM) 0.922 ± 0.06.

With UQCRH (UniProt P07919), the NP40-soluble protein abundance is, setting by setting: (concentration: 0.1mM) 0.974 ± 0.036; (concentration: 0.5mM) 0.967 ± 0.052.

In the case of GAA (UniProt P10253), the NP40-soluble protein abundance is, setting by setting: (concentration: 0.1mM) 0.995 ± 0.036; (concentration: 0.5mM) 1.012 ± 0.0016.

Consider ETFA (UniProt P13804), for which the NP40-soluble protein abundance reads like this: (concentration: 0.1mM) 0.999 ± 0.038; (concentration: 0.5mM) 1.01 ± 0.025.

With UniProt P00167 and related entries, the NP40-soluble protein abundance is, setting by setting: (concentration: 0.1mM) 0.951 ± 0.018; (concentration: 0.5mM) 0.996 ± 0.025.

As for UniProt O95758-6|O95758-1, the NP40-soluble protein abundance amounted to 0.993 ± 0.062 (concentration: 0.1mM) and 0.997 ± 0.0066 (concentration: 0.5mM).

IGF2R (UniProt P11717): the NP40-soluble protein abundance is, setting by setting: (concentration: 0.1mM) 0.986 ± 0.017; (concentration: 0.5mM) 1.02 ± 0.061.

Take LATS1 (UniProt O95835): the NP40-soluble protein abundance (concentration: 0.1mM) is 1.008 ± 0.0042 and the NP40-soluble protein abundance (concentration: 0.5mM) stood at 1 ± 0.013.

As for HIST1H1E (UniProt P10412), the NP40-soluble protein abundance is, setting by setting: (concentration: 0.1mM) 1.02 ± 0.071; (concentration: 0.5mM) 1.06 ± 0.12.

Take UniProt P04424 and related entries: the NP40-soluble protein abundance is, setting by setting: (concentration: 0.1mM) 0.999 ± 0.034; (concentration: 0.5mM) 0.963 ± 0.015.

With RALA (UniProt P11233), the NP40-soluble protein abundance came out at 0.992 ± 0.018 (concentration: 0.1mM) and 1.02 ± 0.023 (concentration: 0.5mM).

As for UniProt P16930 and related entries, the NP40-soluble protein abundance (concentration: 0.1mM) is 1.02 ± 0.03 and the NP40-soluble protein abundance (concentration: 0.5mM) stood at 0.999 ± 0.049.

For UniProt P13051 and related entries, the NP40-soluble protein abundance was 0.9957 ± 0.0097 (concentration: 0.1mM) and 1.01 ± 0.052 (concentration: 0.5mM).

Turning to UniProt P14635 and related entries, the NP40-soluble protein abundance (concentration: 0.1mM) was determined as 1.01 ± 0.033 and the NP40-soluble protein abundance (concentration: 0.5mM) stood at 1.02 ± 0.045.

Turning to UniProt P09525 and related entries, the NP40-soluble protein abundance reads like this: (concentration: 0.1mM) 1.01 ± 0.019; (concentration: 0.5mM) 1 ± 0.059.

For TSPAN13 (UniProt O95857), the NP40-soluble protein abundance was 0.993 ± 0.013 (concentration: 0.1mM) and 0.996 ± 0.023 (concentration: 0.5mM).

Regarding “P15531-2|P22392-2|Q32Q12 (UniProt Q32Q12+P22392+P15531)”, the NP40-soluble protein abundance stood at 1.07 ± 0.12 (concentration: 0.1mM) and 1.04 ± 0.1 (concentration: 0.5mM).

In the case of ETS1 (UniProt P14921), the NP40-soluble protein abundance came to 0.98 ± 0.031 (concentration: 0.1mM) and 0.989 ± 0.027 (concentration: 0.5mM).

Regarding SNRPA1 (UniProt P09661), the NP40-soluble protein abundance stood at 1.02 ± 0.045 (concentration: 0.1mM) and 1.06 ± 0.037 (concentration: 0.5mM).

Take UniProt P00338-2|P00338-3: the NP40-soluble protein abundance by setting is: (concentration: 0.1mM) 0.982 ± 0.12; (concentration: 0.5mM) 0.862 ± 0.18.

Regarding TPR (UniProt P12270), the NP40-soluble protein abundance (concentration: 0.1mM) came to 0.984 ± 0.027 and the NP40-soluble protein abundance (concentration: 0.5mM) was determined as 0.996 ± 0.053.

For the target PAK4 (UniProt O96013), the NP40-soluble protein abundance (concentration: 0.1mM) stood at 0.982 ± 0.022 and the NP40-soluble protein abundance (concentration: 0.5mM) was determined as 1 ± 0.03.

In the case of UniProt P04049 and related entries, the NP40-soluble protein abundance runs as follows: (concentration: 0.1mM) 1.02 ± 0.046; (concentration: 0.5mM) 0.994 ± 0.0057.

In the case of UniProt P08621 and related entries, the NP40-soluble protein abundance by setting is: (concentration: 0.1mM) 1.028 ± 0.0096; (concentration: 0.5mM) 1.01 ± 0.021.

Turning to COX4I1 (UniProt P13073), the NP40-soluble protein abundance turned out to be 1.01 ± 0.014 (concentration: 0.1mM) and 1.02 ± 0.0098 (concentration: 0.5mM).

For H1F0 (UniProt P07305), the NP40-soluble protein abundance came out at 1.02 ± 0.025 (concentration: 0.1mM) and 1.06 ± 0.016 (concentration: 0.5mM).

On to UniProt P15812 and related entries, for which the NP40-soluble protein abundance was 1 ± 0.024 (concentration: 0.1mM) and 1 ± 0.038 (concentration: 0.5mM).

HCLS1 (UniProt P14317): the NP40-soluble protein abundance (concentration: 0.1mM) was determined as 0.961 ± 0.032 and the NP40-soluble protein abundance (concentration: 0.5mM) was 1.05 ± 0.066.

PTTG1 (UniProt O95997): the NP40-soluble protein abundance is, setting by setting: (concentration: 0.1mM) 0.993 ± 0.021; (concentration: 0.5mM) 0.9698 ± 0.0063.

With UniProt P09497-2, the NP40-soluble protein abundance runs as follows: (concentration: 0.1mM) 1 ± 0.038; (concentration: 0.5mM) 0.9919 ± 0.009.

In the case of UniProt P15056 and related entries, the NP40-soluble protein abundance reads like this: (concentration: 0.1mM) 1.04 ± 0.033; (concentration: 0.5mM) 1.01 ± 0.036.

Take UniProt P04183 and related entries: the NP40-soluble protein abundance by setting is: (concentration: 0.1mM) 0.991 ± 0.029; (concentration: 0.5mM) 0.99 ± 0.02.

In the case of UniProt P07992 and related entries, the NP40-soluble protein abundance is, setting by setting: (concentration: 0.1mM) 1.01 ± 0.09; (concentration: 0.5mM) 1.02 ± 0.092.

As for DLD (UniProt P09622), the NP40-soluble protein abundance (concentration: 0.1mM) was determined as 1.03 ± 0.027 and the NP40-soluble protein abundance (concentration: 0.5mM) stood at 1.01 ± 0.025.

RNH1 (UniProt P13489): the NP40-soluble protein abundance stood at 0.969 ± 0.022 (concentration: 0.1mM) and 0.973 ± 0.032 (concentration: 0.5mM).

As for AKR1A1 (UniProt P14550), the NP40-soluble protein abundance runs as follows: (concentration: 0.1mM) 0.971 ± 0.051; (concentration: 0.5mM) 0.957 ± 0.031.

In the case of UniProt P11234 and related entries, the NP40-soluble protein abundance reads like this: (concentration: 0.1mM) 0.9811 ± 0.0053; (concentration: 0.5mM) 1.02 ± 0.025.

Regarding PYGB (UniProt P11216), the NP40-soluble protein abundance (concentration: 0.1mM) worked out at 1.03 ± 0.021 and the NP40-soluble protein abundance (concentration: 0.5mM) was determined as 1 ± 0.068.

As to TXNDC12 (UniProt O95881), the NP40-soluble protein abundance turned out to be 0.96 ± 0.037 (concentration: 0.1mM) and 1 ± 0.056 (concentration: 0.5mM).

Regarding UniProt O95777 and related entries, the NP40-soluble protein abundance stood at 1.01 ± 0.028 (concentration: 0.1mM) and 0.959 ± 0.095 (concentration: 0.5mM).

Regarding UniProt P06733 and related entries, the NP40-soluble protein abundance (concentration: 0.1mM) was 0.975 ± 0.045 and the NP40-soluble protein abundance (concentration: 0.5mM) was determined as 1.04 ± 0.091.

Turning to GAPDH (UniProt P04406), the NP40-soluble protein abundance reads like this: (concentration: 0.1mM) 0.996 ± 0.085; (concentration: 0.5mM) 1.01 ± 0.012.

For IFNGR1 (UniProt P15260), the NP40-soluble protein abundance amounted to 1 ± 0.042 (concentration: 0.1mM) and 1 ± 0.054 (concentration: 0.5mM).

Regarding SPN (UniProt P16150), the NP40-soluble protein abundance is 0.996 ± 0.04 (concentration: 0.1mM) and 0.97 ± 0.031 (concentration: 0.5mM).

Regarding UniProt P13674-2|P13674, the NP40-soluble protein abundance runs as follows: (concentration: 0.1mM) 0.995 ± 0.03; (concentration: 0.5mM) 0.998 ± 0.013.

UniProt P16278 and related entries: the NP40-soluble protein abundance by setting is: (concentration: 0.1mM) 0.989 ± 0.014; (concentration: 0.5mM) 1.02 ± 0.028.

Regarding UniProt P11274 and related entries, the NP40-soluble protein abundance was 1.03 ± 0.03 (concentration: 0.1mM) and 0.988 ± 0.026 (concentration: 0.5mM).

Regarding UniProt O96005 and related entries, the NP40-soluble protein abundance (concentration: 0.1mM) stood at 1.01 ± 0.085 and the NP40-soluble protein abundance (concentration: 0.5mM) came to 1.02 ± 0.074.

Source of the values: the supplement of paper PMC6411743.
